From paper PMC11349808
Results are given in words; binding and its absence hold for the method and conditions named. Binding seen in cells or lysates may run through a third protein. Some binding calls cover weakened binding; strength is not graded here. Tags and fused reporters may be left off the sequences shown.

Amino acid sequences for entries named in this document (tags omitted).
UniProt O09106: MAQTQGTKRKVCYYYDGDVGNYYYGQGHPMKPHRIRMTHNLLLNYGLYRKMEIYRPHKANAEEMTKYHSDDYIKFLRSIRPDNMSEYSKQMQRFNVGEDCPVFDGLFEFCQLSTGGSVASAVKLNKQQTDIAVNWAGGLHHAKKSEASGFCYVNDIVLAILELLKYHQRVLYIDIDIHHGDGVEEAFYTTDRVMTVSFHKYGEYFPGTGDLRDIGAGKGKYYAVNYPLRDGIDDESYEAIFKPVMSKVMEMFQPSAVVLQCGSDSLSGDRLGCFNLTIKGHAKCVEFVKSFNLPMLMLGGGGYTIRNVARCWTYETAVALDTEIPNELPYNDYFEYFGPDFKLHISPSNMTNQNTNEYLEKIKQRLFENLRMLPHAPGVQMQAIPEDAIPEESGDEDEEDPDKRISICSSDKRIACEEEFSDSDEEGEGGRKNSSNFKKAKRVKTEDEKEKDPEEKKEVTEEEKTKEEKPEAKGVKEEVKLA

T1: Sin3 histone deacetylase corepressor complex component SDS3 (mouse (endogenous in BV2)) (UniProt Q8BR65)
T1 sequence: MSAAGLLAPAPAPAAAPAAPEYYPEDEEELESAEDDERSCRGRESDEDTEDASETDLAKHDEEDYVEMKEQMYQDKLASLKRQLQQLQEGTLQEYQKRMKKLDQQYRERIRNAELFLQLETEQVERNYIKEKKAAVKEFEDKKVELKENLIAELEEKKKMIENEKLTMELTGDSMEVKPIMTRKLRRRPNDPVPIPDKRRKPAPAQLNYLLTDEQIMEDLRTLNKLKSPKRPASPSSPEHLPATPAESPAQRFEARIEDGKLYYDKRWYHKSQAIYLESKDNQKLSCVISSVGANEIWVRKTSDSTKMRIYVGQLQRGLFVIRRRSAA

B1: paired amphipathic helix protein Sin3A (protein, UniProt Q60520 1-1274)
chain: MKRRLDDQESPVYAAQQRRIPGSTEAFSHQHRVLAPAPPVYEAVSETMQSATGIQYSVAPNYQVSAVPQSSGSHGPAIAAVHSSHHHPTAVQPHGGQVVQSHAHPAPPVAPVQGQQQFQRLKVEDALSYLDQVKLQFGSQPQVYNDFLDIMKEFKSQSIDTPGVISRVSQLFKGHPDLIMGFNTFLPPGYKIEVQTNDMVNVTTPGQVHQIPTHGIQPQPQPPPQHPSQPSSQSAPTPAQPAPQPTAAKVSKPSQLQAHTPASQQTPPLPPYASPRSPPVQPHTPVTISLGTAPSLQNNQPVEFNHAINYVNKIKNRFQGQPDIYKAFLEILHTYQKEQRNAKEAGGNYTPALTEQEVYAQVARLFKNQEDLLSEFGQFLPDANSSVLLSKTTAEKVDSVRNDHGGTVKKPQLNNKPQRPSQNGCQIRRHSGTGATPPVKKKPKLMSLKESSMADASKHGVGTESLFFDKVRKALRSAEAYENFLRCLVIFNQEVISRAELVQLVSPFLGKFPELFNWFKNFLGYKESVHLESFPKERATEGIAMEIDYASCKRLGSSYRALPKSYQQPKCTGRTPLCKEVLNDTWVSFPSWSEDSTFVSSKKTQYEEHIYRCEDERFELDVVLETNLATIRVLEAIQKKLSRLSAEEQAKFRLDNTLGGTSEVIHRKALQRIYADKAADIIDGLRKNPSIAVPIVLKRLKMKEEEWREAQRGFNKVWREQNEKYYLKSLDHQGINFKQNDTKVLRSKSLLNEIESIYDERQEQATEENAGVPVGPHLSLAYEDKQILEDAAALIIHHVKRQTGIQKEDKYKIKQIMHHFIPDLLFAQRGDLSDVEEEEEEEMDVDEATGAPKKHNGVGGSPPKSKLLFSNTAAQKLRGMDEVYNLFYVNNNWYIFMRLHQILCLRLLRICSQAERQIEEENREREWEREVLGIKRDKSDSPAIQLRLKEPMDVDVEDYYPAFLDMVRSLLDGNIDSSQYEDSLREMFTIHAYIAFTMDKLIQSIVRQLQHIVSDEVCVQVTDLYLAENNNGATGGQLNSQTSRSLLESAYQRKAEQLMSDENCFKLMFIQSQGQVQLTVELLDTEEENSDDPVEAERWSDYVERYMSSDTTSPELREHLAQKPVFLPRNLRRIRKCQRGREQQEKEGKEGNSKKTMENVESLDKLECRFKLNSYKMVYVIKSEDYMYRRTALLRAHQSHERVSKRLHQRFQAWVDKWTKEHVPREMAAETSKWLMGEGLEGLVPCTTTCDTETLHFVSINKYRVKYGTVFKAP

Target: T1, Sin3 histone deacetylase corepressor complex component SDS3 (mouse (endogenous in BV2))
Experiment: co-IP; immunoprecipitation with anti-SDS3 from BV2 cells, Western blotting for Sin3A and HDAC1; endogenous proteins

| Molecule | binding |
| --- | --- |
| HDAC1 (from UniProt O09106 1-482) | binds |
| B1 | binds |
